Measurements reported in PubChem BioAssay AID1159600 (NIAID, 2016).
Shown is an unselected part of 756 reagents. 134 of all reagents (18%) count as active. 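Active includes both reduced and increased reporter signal, though most active siRNAs reduce it; R848 dose unknown.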 A number with no mark means an inactive call. Reagents against one gene are numbered here. Not stated in the record: the amount of reagent.

- Purpose: 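How human macrophage-like cells depend on pathway genes for TLR7/8 agonist response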 (primary screen)
- Cells: human THP-1 TNF reporter clone B5, made macrophage-like with PMA
- Knock-down reagent: single siRNA against human genes
- Timing: 4 h ligand stimulation, assayed 48 to 72 h after siRNA transfection
- Challenge: R848 (TLR7/8 agonist) for 4 hours before lysis; dose not given
- Measured: 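TNF promoter firefly to renilla luciferase ratio after 4 h R848, scaled per plate by median and MAD, robust z-score against negative controls, mean of replicates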
- Direction: TNF reporter z-score: higher = stronger TNF promoter reporter signal after R848
- Hit rule: 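Active where mean z-score is about 1.5 or more from zero in either direction; depositor grades use cut-offs of 1, 1.5, 2 and 2.5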
- Meaning of the calls: active = strong change in TNF reporter (up or down); inactive = little change

PTK2B #1 gave TNF reporter z-score -1.2.
For PTK2B #2, the values are TNF reporter z-score -0.771.
Depletion of PTK2B #3 gave: TNF reporter z-score 0.964.
PTK2B #4 gave TNF reporter z-score -0.919.
PTK2B #5 scored TNF reporter z-score -1.36.
For PTK2B #6, the values are TNF reporter z-score 1.09.
TLR4 #1 scored TNF reporter z-score 1.76 (active).
TLR4 #2 scored TNF reporter z-score -0.184.
TLR4 #3 scored TNF reporter z-score -0.805.
TLR4 #4 scored TNF reporter z-score 0.413.
With knock-down of TLR4 #5, the screen gave TNF reporter z-score -0.152.
TLR4 #6 showed TNF reporter z-score -0.9.
After knock-down of PIK3R1 #1 the results were TNF reporter z-score 1.39.
PIK3R1 #2 scored TNF reporter z-score -0.51.
After knock-down of PIK3R1 #3 the results were TNF reporter z-score 0.298.
Depletion of PIK3R1 #4 came out at: TNF reporter z-score -0.66.
Silencing of PIK3R1 #5 came out at: TNF reporter z-score -2.36 (active).
Against PIK3R1 #6, the values are TNF reporter z-score 1.18.
After knock-down of DUSP2 #1, the record shows TNF reporter z-score -1.09.
For DUSP2 #2, the entry reads TNF reporter z-score -0.305.
With knock-down of DUSP2 #3, the screen gave TNF reporter z-score -1.51 (active).
DUSP2 #4 scored TNF reporter z-score 1.12.
Knock-down of DUSP2 #5 gave: TNF reporter z-score -0.633.
Against DUSP2 #6, the values are TNF reporter z-score -0.781.
Against CHUK #1 the deposit lists TNF reporter z-score -0.314.
Depletion of CHUK #2 resulted in: TNF reporter z-score -0.00816.
After knock-down of CHUK #3, the record shows TNF reporter z-score -1.14.
CHUK #4 gave TNF reporter z-score -0.672.
Depletion of CHUK #5 gave: TNF reporter z-score -1.4.
For CHUK #6 the deposit lists TNF reporter z-score 0.0773.

3 entries from above, set out differently.
| gene | siRNA no. | TNF reporter z-score |
| --- | --- | --- |
| DUSP2 | 3 | -1.51 (active) |
| DUSP2 | 4 | 1.12 |
| DUSP2 | 5 | -0.633 |

Additional reagents:
Against MAP2K6 #1 the deposit lists TNF reporter z-score -1.22.
With knock-down of MAP2K6 #2, the record shows TNF reporter z-score -0.566.
MAP2K6 #3 scored TNF reporter z-score 0.0239.
For MAP2K6 #4, the entry reads TNF reporter z-score -0.853.
With knock-down of MAP2K6 #5 the results were TNF reporter z-score 0.533.
For MAP2K6 #6, the values are TNF reporter z-score -0.7.
TAB1 #1 gave TNF reporter z-score -0.173.
For TAB1 #2, the entry reads TNF reporter z-score -2.21 (active).
Depletion of TAB1 #3 came out at: TNF reporter z-score 0.37.
After knock-down of TAB1 #4, the record shows TNF reporter z-score -1.99 (active).
TAB1 #5 scored TNF reporter z-score -1.52 (active).
Silencing of TAB1 #6 gave: TNF reporter z-score -0.666.
Against CXCL11 #1, the entry reads TNF reporter z-score -1.53 (active).
After knock-down of CXCL11 #2, the screen gave TNF reporter z-score -0.531.
Against CXCL11 #3 the deposit lists TNF reporter z-score 0.254.
CXCL11 #4 scored TNF reporter z-score -0.374.
CXCL11 #5 showed TNF reporter z-score -2.21 (active).
Depletion of CXCL11 #6 came out at: TNF reporter z-score -0.353.
Depletion of IRAK4 #1 gave: TNF reporter z-score -0.331.
Depletion of IRAK4 #2 gave: TNF reporter z-score 1.15.
After knock-down of IRAK4 #3 the results were TNF reporter z-score -0.532.
Depletion of IRAK4 #4 resulted in: TNF reporter z-score -0.532.
With knock-down of IRAK4 #5, the record shows TNF reporter z-score -0.341.
IRAK4 #6 showed TNF reporter z-score -0.672.
After knock-down of MAPK13 #1, the record shows TNF reporter z-score -2.05 (active).
MAPK13 #2 scored TNF reporter z-score -1.88 (active).
Against MAPK13 #3, the values are TNF reporter z-score 0.378.
MAPK13 #4 scored TNF reporter z-score -0.387.
After knock-down of MAPK13 #5 the results were TNF reporter z-score -0.672.
Against MAPK13 #6, the values are TNF reporter z-score 0.348.
